No constants are given. Whether binding was seen depends on the method and setting. Some entries that bind do so weakly or less than the wild type.
Assays:
[1] = target: immobilized recombinant human PSMA (BLI of Example 9) (human) (UniProt Q04609); experiment: BLI, immobilized recombinant human PSMA
[2] = target: PSMA expressed on target cells (PC3pip cells, high density; 22Rv1 cells, low density) (UniProt Q04609); experiment: inferred from T-cell luciferase reporter assay, PC3pip cells

Amino acid sequences for entries named in this document (tags omitted). A change or cut given only in a name is not applied to a line headed by its entry. Residues count along the entry.
UniProt Q04609: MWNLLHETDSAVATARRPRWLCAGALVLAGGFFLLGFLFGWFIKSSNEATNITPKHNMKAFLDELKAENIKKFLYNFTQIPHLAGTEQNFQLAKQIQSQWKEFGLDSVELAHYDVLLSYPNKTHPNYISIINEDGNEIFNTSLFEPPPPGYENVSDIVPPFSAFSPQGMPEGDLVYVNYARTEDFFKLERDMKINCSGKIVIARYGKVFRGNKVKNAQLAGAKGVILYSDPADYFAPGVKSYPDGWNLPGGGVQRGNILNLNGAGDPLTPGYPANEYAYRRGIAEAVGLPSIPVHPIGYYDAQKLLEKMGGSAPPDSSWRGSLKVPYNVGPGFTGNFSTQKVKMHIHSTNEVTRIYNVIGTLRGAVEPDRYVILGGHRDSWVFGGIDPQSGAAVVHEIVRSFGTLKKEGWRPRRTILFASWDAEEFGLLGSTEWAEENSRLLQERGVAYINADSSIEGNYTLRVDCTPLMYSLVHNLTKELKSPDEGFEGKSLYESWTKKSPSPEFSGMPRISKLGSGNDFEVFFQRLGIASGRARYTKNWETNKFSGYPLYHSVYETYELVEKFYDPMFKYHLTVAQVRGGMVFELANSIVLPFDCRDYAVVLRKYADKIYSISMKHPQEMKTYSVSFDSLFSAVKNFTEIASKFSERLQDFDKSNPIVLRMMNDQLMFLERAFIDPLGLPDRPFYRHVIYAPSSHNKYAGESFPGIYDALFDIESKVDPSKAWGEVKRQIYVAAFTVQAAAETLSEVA
immobilized recombinant human PSMA (BLI of Example 9): residues 44-750 of Q04609

B1: C32 (bispecific antibody)
chain: QVQLQESGGGSVEAGGSLRLSCARSGWPYSTYSMNWFRQAPGKEREAVAGISSTMSGIIFAESKAGQFTISQDNAKNTVYLQMNNLKPEDTAIYYCAARRYFSLSSSSDDFDYWGQGTQVTVSSGGGGSGGGGSGGGGSGGGGSEVQLVESGGGLVQPGGSLRLSCAASGDIYKSFDMGWYRQAPGKQRDLVAVIGSRGNNRGRTNYADSVKGRFTISRDGTGNTVYLLMNKLRPEDTAIYYCNTAPLVAGRPWGRGTLVTVSSAAAYPYDVPDYGSSPSTPPTPSPSTPPHHHHHH
binding [1]: binds

B2: C33 (bispecific antibody)
chain: QVQLQESGGGSVEAGGSLRLSCARSGWPYSTYSMNWFRQAPGKEREAVAGISSTMSGIIFAESKAGQFTISQDNAKNTVYLQMNNLKPEDTAIYYCAARRYFSLSSSSDDFDYWGQGTQVTVSSGGGGSGGGGSGGGGSGGGGSEVQLVESGGGLVQPGGSLRLSCVASGDVHKINFLGWYRQAPGKEREKVAHISIGDQTDYADSAKGRFTISRDESKNMVYLQMNSLKPEDTAVYFCRAFSRIYPYDYWGQGTLVTVSSAAAYPYDVPDYGSSPSTPPTPSPSTPPHHHHHH
binding [2]: binds
binding [1]: binds

From patent publication US20250353926A1
